# Reference: the supplement of paper PMC4604168 (melanoma cell lines)
# This is one part of the list. Many values rest on one well or one pass, so single values are uncertain.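 Imaging used 1,536-well plates; nuclei positive for cleaved PARP by antibody were divided by total DNA-stained nuclei to yield the apoptosis fraction. Doses for screening kept most cells viable, and cell lines differ markedly in resting and induced cleaved-PARP levels.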
# System: MeWo
# Experiment: cleaved PARP positive nuclei fraction relative to DMSO control; melanoma cells; higher = more apoptosis
# Conditions: library dose: low library concentration; 72 h
row,Compound,cleaved PARP positive nuclei fraction [%]
1,"CC[C@]1(O)C[C@H]2CN(CCc3c([nH]c4ccccc34)[C@@](C(=O)OC)(c3cc4c(cc3OC)N(C=O)[C@H]3[C@@](O)(C(=O)OC)[C@H](OC(C)=O)[C@]5(CC)C=CCN6CC[C@]43[C@@H]65)C2)C1 [vincristine] + CO[C@H]1C[C@@H]2CC[C@@H](C)[C@@](O)(O2)C(=O)C(=O)N2CCCC[C@H]2C(=O)O[C@H]([C@H](C)C[C@@H]2CC[C@@H](OCCO)[C@H](OC)C2)CC(=O)[C@H](C)/C=C(\C)[C@@H](O)[C@@H](OC)C(=O)[C@H](C)C[C@H](C)/C=C/C=C/C=C/1C [everolimus] (first compound 0.0001 µM, partner dose 0.02 µM)",285
2,"COc1cc([C@@H]2c3cc4c(cc3[C@@H](O[C@@H]3O[C@@H]5CO[C@@H](C)O[C@H]5[C@H](O)[C@H]3O)[C@H]3COC(=O)[C@H]23)OCO4)cc(OC)c1O [etoposide] + CC1(C)CCC(c2ccc(Cl)cc2)=C(CN2CCN(c3ccc(C(=O)NS(=O)(=O)c4ccc(N[C@H](CCN5CCOCC5)CSc5ccccc5)c(S(=O)(=O)C(F)(F)F)c4)cc3)CC2)C1 [ABT263] (first compound 0.02 µM, partner dose 0.4 µM)",558
3,"CC[C@]1(O)C[C@H]2CN(CCc3c([nH]c4ccccc34)[C@@](C(=O)OC)(c3cc4c(cc3OC)N(C=O)[C@H]3[C@@](O)(C(=O)OC)[C@H](OC(C)=O)[C@]5(CC)C=CCN6CC[C@]43[C@@H]65)C2)C1 [vincristine] + NC(=O)c1ccc(N(C(N)=O)c2c(F)cccc2F)nc1-c1ccc(F)cc1F [VX702] (first compound 0.0001 µM, partner dose 0.4 µM)",129
4,"Cc1ccc(Nc2nccc(N(C)c3ccc4c(C)n(C)nc4c3)n2)cc1S(N)(=O)=O [Pazopanib] + C=CCNC1=C2C[C@@H](C)C[C@H](OC)[C@H](O)[C@@H](C)/C=C(\C)[C@H](OC(N)=O)[C@@H](OC)/C=C\C=C(/C)C(=O)NC(=CC1=O)C2=O [Tanespimycin] (first compound 0.4 µM, partner dose 0.002 µM)",76.2
5,"O=C(Nc1cc(C(F)(F)F)cc(C(F)(F)F)c1)c1cc(Cl)ccc1O + Cn1c(=O)n(-c2ccc(C(C)(C)C#N)cc2)c2c3cc(-c4cnc5ccccc5c4)ccc3ncc21 [NVP-BEZ235] (first compound 0.016 µM, partner dose 0.004 µM)",66.5
6,"Cc1cn(-c2cc(NC(=O)c3ccc(C)c(Nc4nccc(-c5cccnc5)n4)c3)cc(C(F)(F)F)c2)cn1 [nilotinib] + Cc1nc(Nc2ncc(C(=O)Nc3c(C)cccc3Cl)s2)cc(N2CCN(CCO)CC2)n1 [dasatanib] (first compound 0.2 µM, partner dose 0.004 µM)",87.6
7,"Cc1cc(Nc2cc(N3CCN(C)CC3)nc(Sc3ccc(NC(=O)C4CC4)cc3)n2)n[nH]1 [Tozasertib] + O=C(O)c1ccc2c(c1)nc(Nc1cccc(Cl)c1)c1ccncc12 [CX4945] (first compound 0.006 µM, partner dose 0.4 µM)",106
8,"O=C(Nc1cc(C(F)(F)F)cc(C(F)(F)F)c1)c1cc(Cl)ccc1O + CO[C@H]1C[C@@H]2CC[C@@H](C)[C@@](O)(O2)C(=O)C(=O)N2CCCC[C@H]2C(=O)O[C@H]([C@H](C)C[C@@H]2CC[C@@H](OCCO)[C@H](OC)C2)CC(=O)[C@H](C)/C=C(\C)[C@@H](O)[C@@H](OC)C(=O)[C@H](C)C[C@H](C)/C=C/C=C/C=C/1C [everolimus] (first compound 0.016 µM, partner dose 0.02 µM)",156
9,"Cc1cc(Nc2cc(N3CCN(C)CC3)nc(Sc3ccc(NC(=O)C4CC4)cc3)n2)n[nH]1 [Tozasertib] + Nc1cccc2c1CN(C1CCC(=O)NC1=O)C2=O [lenalidomide] (first compound 0.006 µM, partner dose 1 µM)",52.3
10,"O=C(Nc1cc(C(F)(F)F)cc(C(F)(F)F)c1)c1cc(Cl)ccc1O + Cn1nnc2c(C(N)=O)ncn2c1=O [temozolomide] (first compound 0.016 µM, partner dose 2 µM)",98.1
11,"COc1cc([C@@H]2c3cc4c(cc3[C@@H](O[C@@H]3O[C@@H]5CO[C@@H](C)O[C@H]5[C@H](O)[C@H]3O)[C@H]3COC(=O)[C@H]23)OCO4)cc(OC)c1O [etoposide] + Cn1sc(=O)n(Cc2ccccc2)c1=O [TDZD-8] (first compound 0.02 µM, partner dose 0.4 µM)",164
12,"Cc1cn(-c2cc(NC(=O)c3ccc(C)c(Nc4nccc(-c5cccnc5)n4)c3)cc(C(F)(F)F)c2)cn1 [nilotinib] + Nc1nc(F)nc2c1ncn2[C@@H]1O[C@H](CO)[C@@H](O)[C@@H]1O [fludarabine] (first compound 0.2 µM, partner dose 0.2 µM)",409
13,"O=c1[nH]nc(Sc2ncc([N+](=O)[O-])s2)n1-c1ccc2c(c1)OCCO2 + CO[C@H]1C[C@@H]2CC[C@@H](C)[C@@](O)(O2)C(=O)C(=O)N2CCCC[C@H]2C(=O)O[C@H]([C@H](C)C[C@@H]2CC[C@@H](OCCO)[C@H](OC)C2)CC(=O)[C@H](C)/C=C(\C)[C@@H](O)[C@@H](OC)C(=O)[C@H](C)C[C@H](C)/C=C/C=C/C=C/1C [everolimus] (first compound 0.2 µM, partner dose 0.02 µM)",83.4
14,"O=c1[nH]nc(Sc2ncc([N+](=O)[O-])s2)n1-c1ccc2c(c1)OCCO2 + Cn1nnc2c(C(N)=O)ncn2c1=O [temozolomide] (first compound 0.2 µM, partner dose 2 µM)",198
15,"Cc1cc(Nc2cc(N3CCN(C)CC3)nc(Sc3ccc(NC(=O)C4CC4)cc3)n2)n[nH]1 [Tozasertib] + C[C@@H](Oc1cc(-c2cnn(C3CCNCC3)c2)cnc1N)c1c(Cl)ccc(F)c1Cl [Crizotinib] (first compound 0.006 µM, partner dose 0.2 µM)",224
16,"O=c1[nH]nc(Sc2ncc([N+](=O)[O-])s2)n1-c1ccc2c(c1)OCCO2 + NC(=O)c1ccc(N(C(N)=O)c2c(F)cccc2F)nc1-c1ccc(F)cc1F [VX702] (first compound 0.2 µM, partner dose 0.4 µM)",98.6
17,"Cc1ccc(Nc2nccc(N(C)c3ccc4c(C)n(C)nc4c3)n2)cc1S(N)(=O)=O [Pazopanib] + CO[C@H]1C[C@@H]2CC[C@@H](C)[C@@](O)(O2)C(=O)C(=O)N2CCCC[C@H]2C(=O)O[C@H]([C@H](C)C[C@@H]2CC[C@@H](OCCO)[C@H](OC)C2)CC(=O)[C@H](C)/C=C(\C)[C@@H](O)[C@@H](OC)C(=O)[C@H](C)C[C@H](C)/C=C/C=C/C=C/1C [everolimus] (first compound 0.4 µM, partner dose 0.02 µM)",409
18,"Cc1ccc(Nc2nccc(N(C)c3ccc4c(C)n(C)nc4c3)n2)cc1S(N)(=O)=O [Pazopanib] + CCCS(=O)(=O)Nc1ccc(F)c(C(=O)c2c[nH]c3ncc(Cl)cc23)c1F [PLX4720] (first compound 0.4 µM, partner dose 0.08 µM)",71.3
19,"N#CC[C@H](C1CCCC1)n1cc(-c2ncnc3[nH]ccc23)cn1 [ruxolitinib] + OCc1c[nH]c2ccccc12 [Indole-3-carbinol] (first compound 1 µM, partner dose 0.8 µM)",88.7
20,"Cc1ccc(Nc2nccc(N(C)c3ccc4c(C)n(C)nc4c3)n2)cc1S(N)(=O)=O [Pazopanib] + OCc1c[nH]c2ccccc12 [Indole-3-carbinol] (first compound 0.4 µM, partner dose 0.8 µM)",89.9
21,"COc1cc([C@@H]2c3cc4c(cc3[C@@H](O[C@@H]3O[C@@H]5CO[C@@H](C)O[C@H]5[C@H](O)[C@H]3O)[C@H]3COC(=O)[C@H]23)OCO4)cc(OC)c1O [etoposide] + C[C@]1(O)C[C@@H](c2nc(-c3ccc4ccc(-c5ccccc5)nc4c3)c3c(N)nccn32)C1 [OSI906] (first compound 0.02 µM, partner dose 0.4 µM)",73.5
22,"N#CC[C@H](C1CCCC1)n1cc(-c2ncnc3[nH]ccc23)cn1 [ruxolitinib] + CO[C@H]1C[C@@H]2CC[C@@H](C)[C@@](O)(O2)C(=O)C(=O)N2CCCC[C@H]2C(=O)O[C@H]([C@H](C)C[C@@H]2CC[C@@H](OCCO)[C@H](OC)C2)CC(=O)[C@H](C)/C=C(\C)[C@@H](O)[C@@H](OC)C(=O)[C@H](C)C[C@H](C)/C=C/C=C/C=C/1C [everolimus] (first compound 1 µM, partner dose 0.02 µM)",159
23,"Cc1ccc(Nc2nccc(N(C)c3ccc4c(C)n(C)nc4c3)n2)cc1S(N)(=O)=O [Pazopanib] + Cn1nnc2c(C(N)=O)ncn2c1=O [temozolomide] (first compound 0.4 µM, partner dose 2 µM)",91.2
24,"O=c1[nH]nc(Sc2ncc([N+](=O)[O-])s2)n1-c1ccc2c(c1)OCCO2 + CCCS(=O)(=O)Nc1ccc(F)c(C(=O)c2c[nH]c3ncc(Cl)cc23)c1F [PLX4720] (first compound 0.2 µM, partner dose 0.08 µM)",42.9
25,"Cc1ccc(Nc2nccc(N(C)c3ccc4c(C)n(C)nc4c3)n2)cc1S(N)(=O)=O [Pazopanib] + CC(=O)c1c(C)c2cnc(Nc3ccc(N4CCNCC4)cn3)nc2n(C2CCCC2)c1=O [palbociclib] (first compound 0.4 µM, partner dose 0.04 µM)",59

# Numbers 4 to 5, quoted:
row,Compound,cleaved PARP positive nuclei fraction [%]
4,"Cc1ccc(Nc2nccc(N(C)c3ccc4c(C)n(C)nc4c3)n2)cc1S(N)(=O)=O [Pazopanib] + C=CCNC1=C2C[C@@H](C)C[C@H](OC)[C@H](O)[C@@H](C)/C=C(\C)[C@H](OC(N)=O)[C@@H](OC)/C=C\C=C(/C)C(=O)NC(=CC1=O)C2=O [Tanespimycin] (first compound 0.4 µM, partner dose 0.002 µM)",76.2
5,"O=C(Nc1cc(C(F)(F)F)cc(C(F)(F)F)c1)c1cc(Cl)ccc1O + Cn1c(=O)n(-c2ccc(C(C)(C)C#N)cc2)c2c3cc(-c4cnc5ccccc5c4)ccc3ncc21 [NVP-BEZ235] (first compound 0.016 µM, partner dose 0.004 µM)",66.5
